Source: PMC7042730
These are yes or no findings as the source states them, for the method shown. In cells and extracts the contact can be indirect. Some results given as binding are weak or reduced against the parent protein; the word gives no strength. Blank lines part the entries; values can stand above or below the substance they belong to.

Chains of the proteins cited; added tags and fusions are not shown.
UniProt O55242: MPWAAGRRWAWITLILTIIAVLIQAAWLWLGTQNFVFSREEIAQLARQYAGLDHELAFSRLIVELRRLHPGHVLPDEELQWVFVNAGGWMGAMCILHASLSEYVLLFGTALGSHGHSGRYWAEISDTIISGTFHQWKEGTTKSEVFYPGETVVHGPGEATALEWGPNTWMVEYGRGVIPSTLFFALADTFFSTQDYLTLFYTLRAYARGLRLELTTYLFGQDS
UniProt P63141: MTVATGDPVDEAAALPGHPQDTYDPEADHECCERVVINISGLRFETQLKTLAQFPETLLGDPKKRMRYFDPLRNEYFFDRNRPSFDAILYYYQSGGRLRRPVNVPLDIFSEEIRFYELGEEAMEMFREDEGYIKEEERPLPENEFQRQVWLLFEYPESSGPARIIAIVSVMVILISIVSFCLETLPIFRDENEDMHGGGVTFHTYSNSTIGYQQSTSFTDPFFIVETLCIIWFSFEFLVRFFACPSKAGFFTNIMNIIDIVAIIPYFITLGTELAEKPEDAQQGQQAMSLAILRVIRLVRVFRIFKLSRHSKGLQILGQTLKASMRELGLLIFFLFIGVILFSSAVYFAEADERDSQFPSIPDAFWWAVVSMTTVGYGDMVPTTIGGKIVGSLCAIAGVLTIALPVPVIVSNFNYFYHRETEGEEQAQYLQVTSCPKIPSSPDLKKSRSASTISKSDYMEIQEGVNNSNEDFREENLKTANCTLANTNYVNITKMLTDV
UniProt P11881: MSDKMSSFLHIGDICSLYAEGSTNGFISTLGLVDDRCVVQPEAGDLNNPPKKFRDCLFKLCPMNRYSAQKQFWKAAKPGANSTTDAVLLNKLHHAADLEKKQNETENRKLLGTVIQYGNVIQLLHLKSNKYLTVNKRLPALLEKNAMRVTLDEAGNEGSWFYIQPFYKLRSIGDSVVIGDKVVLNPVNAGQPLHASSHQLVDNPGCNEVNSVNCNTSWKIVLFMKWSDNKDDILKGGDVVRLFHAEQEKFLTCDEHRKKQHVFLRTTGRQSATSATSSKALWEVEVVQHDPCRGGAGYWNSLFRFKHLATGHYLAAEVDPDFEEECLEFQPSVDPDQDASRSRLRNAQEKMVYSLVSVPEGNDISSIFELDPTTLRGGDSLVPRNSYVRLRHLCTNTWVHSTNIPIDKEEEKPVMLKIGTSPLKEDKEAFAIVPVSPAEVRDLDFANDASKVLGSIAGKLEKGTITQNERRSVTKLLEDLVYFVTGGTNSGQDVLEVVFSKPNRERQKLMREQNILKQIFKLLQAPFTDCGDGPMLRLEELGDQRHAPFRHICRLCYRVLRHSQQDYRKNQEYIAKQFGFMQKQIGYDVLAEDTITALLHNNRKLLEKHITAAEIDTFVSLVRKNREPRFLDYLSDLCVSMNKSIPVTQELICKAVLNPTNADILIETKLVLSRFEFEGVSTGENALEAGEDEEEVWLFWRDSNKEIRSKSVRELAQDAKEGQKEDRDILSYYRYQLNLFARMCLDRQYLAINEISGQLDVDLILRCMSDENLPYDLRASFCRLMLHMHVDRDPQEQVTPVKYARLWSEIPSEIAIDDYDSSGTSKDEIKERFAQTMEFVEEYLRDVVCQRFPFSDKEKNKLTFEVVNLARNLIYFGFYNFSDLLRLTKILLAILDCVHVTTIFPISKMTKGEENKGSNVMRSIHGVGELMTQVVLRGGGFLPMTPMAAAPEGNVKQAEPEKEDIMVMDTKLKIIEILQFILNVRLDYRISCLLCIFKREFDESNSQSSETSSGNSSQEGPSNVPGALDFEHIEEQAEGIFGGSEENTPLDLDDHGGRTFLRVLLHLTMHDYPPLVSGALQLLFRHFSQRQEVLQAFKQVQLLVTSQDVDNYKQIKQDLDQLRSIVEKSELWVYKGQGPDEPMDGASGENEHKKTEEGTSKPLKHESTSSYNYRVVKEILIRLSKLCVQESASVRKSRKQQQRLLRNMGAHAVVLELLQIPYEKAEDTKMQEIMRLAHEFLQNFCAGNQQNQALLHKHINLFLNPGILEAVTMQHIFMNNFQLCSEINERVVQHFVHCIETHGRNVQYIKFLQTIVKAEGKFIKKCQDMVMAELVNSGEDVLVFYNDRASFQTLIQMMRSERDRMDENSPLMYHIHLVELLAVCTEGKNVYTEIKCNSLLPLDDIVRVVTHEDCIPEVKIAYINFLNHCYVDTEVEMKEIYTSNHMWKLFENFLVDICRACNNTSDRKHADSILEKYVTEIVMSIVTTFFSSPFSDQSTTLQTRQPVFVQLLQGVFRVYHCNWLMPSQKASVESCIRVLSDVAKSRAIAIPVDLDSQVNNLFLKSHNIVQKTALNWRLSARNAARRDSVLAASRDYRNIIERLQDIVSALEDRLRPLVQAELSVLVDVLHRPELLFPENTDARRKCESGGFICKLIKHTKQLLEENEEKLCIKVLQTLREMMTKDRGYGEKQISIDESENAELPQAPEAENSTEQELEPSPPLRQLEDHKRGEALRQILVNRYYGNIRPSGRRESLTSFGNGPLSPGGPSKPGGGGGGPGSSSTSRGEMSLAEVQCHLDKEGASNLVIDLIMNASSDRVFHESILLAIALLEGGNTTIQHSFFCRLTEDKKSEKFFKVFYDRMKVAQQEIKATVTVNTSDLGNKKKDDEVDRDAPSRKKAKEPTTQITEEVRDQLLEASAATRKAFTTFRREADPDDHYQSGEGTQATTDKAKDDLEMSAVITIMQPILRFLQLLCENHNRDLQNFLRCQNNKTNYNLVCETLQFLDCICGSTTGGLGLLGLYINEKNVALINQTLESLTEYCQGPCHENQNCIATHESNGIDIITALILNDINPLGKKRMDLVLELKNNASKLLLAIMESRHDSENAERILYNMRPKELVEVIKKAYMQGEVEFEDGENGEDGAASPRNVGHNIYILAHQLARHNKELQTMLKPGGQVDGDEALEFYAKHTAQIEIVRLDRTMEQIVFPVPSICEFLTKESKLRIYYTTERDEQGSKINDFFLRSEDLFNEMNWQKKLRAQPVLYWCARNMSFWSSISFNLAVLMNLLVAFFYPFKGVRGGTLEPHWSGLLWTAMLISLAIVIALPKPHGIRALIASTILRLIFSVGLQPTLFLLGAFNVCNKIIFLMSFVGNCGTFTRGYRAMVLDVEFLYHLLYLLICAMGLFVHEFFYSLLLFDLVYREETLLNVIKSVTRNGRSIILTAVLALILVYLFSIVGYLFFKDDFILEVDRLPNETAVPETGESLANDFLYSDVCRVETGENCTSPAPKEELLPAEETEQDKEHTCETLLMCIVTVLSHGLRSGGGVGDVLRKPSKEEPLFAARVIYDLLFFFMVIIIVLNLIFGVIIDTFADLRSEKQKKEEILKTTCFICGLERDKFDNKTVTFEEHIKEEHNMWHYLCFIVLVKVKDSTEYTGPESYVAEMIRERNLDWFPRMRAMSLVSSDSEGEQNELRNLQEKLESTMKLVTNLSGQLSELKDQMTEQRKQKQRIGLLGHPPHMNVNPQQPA

Assays:
[1] = target: σ1-V5-His (wild-type sigma-1 receptor) (UniProt O55242); assay: co-IP; HEK293T cells stably overexpressing IP3R1 and wtσ1-V5 or Δσ1-V5 (control or tunicamycin 20 μg/mL, 2 h); immunoprecipitated with anti-V5 antibody, western blot with anti-IP3R1 and anti-V5
[2] = target: Kv1.2 potassium channel, endogenous in nucleus accumbens shell (mouse (endogenous in NAcSh tissue)) (UniProt P63141); assay: co-IP; NAcSh tissue lysates from brain slices (saline or cocaine 3 μM, 1 h; also tissue from in vivo cocaine-treated mice); immunoprecipitated with anti-Kv1.2 antibody, western blot with anti-Kv1.2 and anti-σ1
[3] = target: Kv1.2 expressed in HEK293T cells (pCMV6-Kv1.2) (UniProt P63141); assay: co-IP; HEK293T cells stably expressing Kv1.2, transfected with wtσ1-V5 or Δσ1-V5 (saline, cocaine 3 μM 1 h, BD1063 500 nM); lysates immunoprecipitated with anti-Kv1.2 antibody, western blot with anti-Kv1.2 and anti-V5

binding [1]: binds
Substance: IP3 receptor type 1 (IP3R1) overexpressed in HEK293T cells (from UniProt P11881 1-2749)

binding [2]: binds
Substance: sigma-1 receptor (σ1), endogenous in nucleus accumbens shell (from UniProt O55242 1-223)

binding [3]: binds
Substance: σ1-V5-His (wild-type sigma-1 receptor) (from UniProt O55242 1-223)
